Assay results taken from PubChem BioAssay AID504648 (National Center for Advancing Translational Sciences (NCATS), 2011).
The campaign covered roughly 390,000 compounds. About 610 (0.16%) were called active. The inconclusive results got no clear call from the source; some entries with a clear call stand among them for comparison. The call rests on the fitted dose curve; in most records, active means well fitted inhibition curve with a large enough effect; inconclusive means small, poorly fitted or top-dose-only effect, or effect the other way, or another doubt; inactive means no such curve, though single readings can be large or run the other way. Potencies of inconclusive entries are doubtful fits and often do not repeat.

Test: Nrf2 qHTS screen for inhibitors: counterscreen for cytotoxicity
Conditions: A549 ARE-Fluc cells, CellTiter-Fluor viability, 18-24 h; series mostly up to 46 µM
In short: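 A549 ARE_Fluc cells in 5% FBS OPTI-MEM were exposed to compounds in concentration-response for 18-24 h at 37 deg C. Viability was read by CellTiter-Fluor fluorescence (Ex 405/Em 525) after 30 min, before the luciferase read.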
Potency means the concentration at half of the fitted maximal effect.

Structure (SMILES) | Potency
O=C(Nc1ccc(S(=O)(=O)NC2=NCCCCC2)cc1)c1cc(S(=O)(=O)N2CCOCC2)ccc1F | inconclusive: 5.8 µM [falling, single point]
Cc1ccc2sc(N(CCCN(C)C)C(=O)c3ccc(S(=O)(=O)N(C)Cc4ccccc4)cc3)nc2c1C | inconclusive: 32.6 µM [falling, single point]
Cc1ccc(S(=O)(=O)Nc2ccc(=O)n(Cc3ccc(Cl)c(Cl)c3)c2)cc1 | inconclusive: 23.1 µM [falling, partial curve, poor fit]
Cc1ccccc1-n1nnnc1Sc1nnnn1-c1ccccc1 | inactive
O=C(CCC(=O)N1CCN(S(=O)(=O)c2ccc(Cl)cc2)CC1)NCc1cccc(C(F)(F)F)c1 | inconclusive: 8.2 µM [falling, partial curve, poor fit]
COc1ccc(/C=C/C(=O)NC(=S)NCCc2ccc(OC)c(OC)c2)cc1 | inconclusive: 23.1 µM [falling, single point]
O=C(COc1cccc(C(F)(F)F)c1)Nc1ccc2[nH]ncc2c1 | inactive
O=[N+]([O-])c1ccc(N/N=C/c2ccc(O)c(O)c2O)c(S(=O)(=O)N2CCOCC2)c1 | inconclusive: 25.9 µM [falling, partial curve, poor fit]
CC(=O)N(Cc1cccs1)Cc1cc2ccc(C)c(C)c2nc1Cl | inactive
CCOc1ccc(C(c2c(NC(=O)c3ccccc3)sc(C)c2C)N2CCN(CCO)CC2)cc1 (stereo unspecified) | inconclusive: 23.1 µM [falling, partial curve, poor fit]
Cc1ccc(C)c(NC(=S)NC(NC(=O)Cc2ccccc2)C(Cl)(Cl)Cl)c1 (stereo unspecified) | inconclusive: 3.26 µM [activator, partial curve, poor fit]
Cc1nn(CC(=O)Nc2ccc(N3CCOCC3)cc2)c(C)c1[N+](=O)[O-] | inconclusive: 6.51 µM [activator, single point]
CCc1ccc(-c2cc(C(F)(F)F)n3nc(C(=O)Nc4cnn(Cc5ccccc5C)c4)cc3n2)s1 | inconclusive: 16.4 µM [activator, partial curve, poor fit]
COc1ccc(Cn2c(C(=O)O)c(CNCCc3cccs3)c3ccc(OC)cc32)cc1 | inconclusive: 16.4 µM [falling, single point]
COc1ccc(OC)c(-c2cc(C(=O)Nc3c(C)nn(Cc4ccc(Cl)cc4)c3C)no2)c1 | inactive
O=C(COC(=O)c1ccc([N+](=O)[O-])o1)NC1CCCCC1 | inactive
N#Cc1c(N)n(-c2cccc(O)c2)c2nc3ccccc3nc12 | inconclusive: 3.66 µM [falling, partial curve, poor fit]
Cc1ccc(N(CC(=O)NCCSc2nc3ccccc3s2)S(=O)(=O)c2ccccc2)c(C)c1 | inconclusive: 25.9 µM [falling, partial curve]
COc1ccc(-c2cc(C)no2)cc1S(=O)(=O)N1CCN(c2ccc(C(C)=O)cc2)CC1 | inactive
O=C(CCCn1c(=O)c2cccn2c2ccccc21)Nc1cccc(Cl)c1 | inactive
COc1cc(OC)cc(-c2cc3cc4c(cc3cn2)OCO4)c1 | inactive
Cc1cccc(-c2nc3ccc(C(=O)NCCN4CCN(C)CC4)cc3nc2-c2cccc(C)c2)c1 | inconclusive: 29.1 µM [falling, single point]

Structure (SMILES) | Potency
O=C(CN1CCCCCCC1)N/N=C/c1ccc([N+](=O)[O-])o1 | inconclusive: 20.6 µM [falling, single point]
CC1CC1c1ccc(/C=C(\C#N)C(=O)Nc2ccccc2Cl)o1 (stereo unspecified) | inactive
COc1ccccc1N1CCN(S(=O)(=O)c2ccc(F)cc2)CC1 | inactive
Oc1ccc(-c2nc3ccccc3s2)cc1 | inactive
COCCN(C(=O)CCC(=O)Nc1cc(C)on1)C(C(=O)NC1CCCC1)c1ccc(C(C)C)cc1 (stereo unspecified) | inconclusive: 29.1 µM [falling, single point]
CCc1nn2cc(C(=O)c3cc(Cl)ccc3O)cnc2c1-c1ccc(F)cc1 | inconclusive: 20.6 µM [falling, single point]
Clc1ccc2c(NCc3ccco3)ncnc2c1 | inactive
Cc1ccc(-n2nc(C)c3c(C)cc(=O)n(CC(=O)NC(C)C)c32)cc1 | inactive
COc1ccc(NC(=O)C2CCCCN2N)cc1OCC(C)C (stereo unspecified) | inconclusive: 8.2 µM [activator, partial curve, poor fit]
O=C(O)c1ccccc1NC(=O)C1CCCO1 (stereo unspecified) | inactive
COc1cc(C(=O)N(Cc2cccnc2)Cc2cc3cc4c(cc3[nH]c2=O)OCCO4)cc(OC)c1OC | inactive
Fc1ccc(N2CCN(Cc3cccn3-c3nnc(N4CCN(C5CCCCC5)CC4)s3)CC2)cc1 | inconclusive: 29.1 µM [falling, single point]
CCOC(=O)c1cc(-c2ccccc2)n(-c2cccc(C(=O)N(C)c3ccc(C)cc3)c2)c1C | inconclusive: 14.6 µM [falling, single point]
CCCCCCCCn1c(=O)c(C(=O)OC)c(N)c2ccccc21 | inconclusive: 29.1 µM [falling, single point]
COc1ccccc1N1CCN(C(=O)/C=C/c2ccco2)CC1 | inactive
O=C(/C(=N/N=C/c1ccc(O)c(O)c1O)c1ccccc1)c1ccccc1 | inconclusive: 23.1 µM [falling, single point]
COc1ccc(C(=O)C(CN2CCOCC2)c2ccccc2)cc1 (stereo unspecified) | inconclusive: 16.4 µM [falling, single point]
O=C(CCCN1C(=O)/C(=C/c2cccs2)SC1=S)NNC(=O)c1ccc(F)cc1 | inconclusive: 20.6 µM [falling, single point]
COc1cc(NC2=CC(=O)CC(C)(C)C2)cc(OC)c1OC | inconclusive: 23.1 µM [activator, partial curve, poor fit]
Cc1nc2c(c(C)nn2-c2ccccc2)c(C)c1CCC(=O)NCCc1ccc(Cl)cc1 | inconclusive: 32.6 µM [falling, partial curve, poor fit]
Cn1c(=O)n(C)c2cc([N+](=O)[O-])c(N3CCN(C(=O)c4ccccc4Br)CC3)cc21 | inconclusive: 18.4 µM [falling, single point]
CCOc1cc(C2Sc3ccccc3NC3=C2C(=O)c2ccccc23)ccc1O (stereo unspecified) | inconclusive: 23.1 µM [falling, partial curve, poor fit]

A run of entries of the results above, as a working copy:
Structure (SMILES) | Potency
COc1ccc(/C=C/C(=O)NC(=S)NCCc2ccc(OC)c(OC)c2)cc1 | inconclusive: 23.1 µM [falling, single point]
O=C(COc1cccc(C(F)(F)F)c1)Nc1ccc2[nH]ncc2c1 | inactive
O=[N+]([O-])c1ccc(N/N=C/c2ccc(O)c(O)c2O)c(S(=O)(=O)N2CCOCC2)c1 | inconclusive: 25.9 µM [falling, partial curve, poor fit]
CC(=O)N(Cc1cccs1)Cc1cc2ccc(C)c(C)c2nc1Cl | inactive
CCOc1ccc(C(c2c(NC(=O)c3ccccc3)sc(C)c2C)N2CCN(CCO)CC2)cc1 (stereo unspecified) | inconclusive: 23.1 µM [falling, partial curve, poor fit]

More compounds.

Structure (SMILES) | Potency
CCOC(=O)c1ccc(NC(=O)CC2C(=O)N(c3ccc(F)cc3)C(=O)N2Cc2ccc(C)cc2)cc1 (stereo unspecified) | inactive
COc1ccc(Nc2cc(C(=O)NCCCN(C)Cc3ccccc3)c3ccccc3n2)cc1 | inactive
Cc1cccn2c(=O)cc(COc3cccc(NC(=O)COc4ccccc4)c3)nc12 | inactive
COc1ccc(/C=C/c2c(-c3ccc(OC)cc3)oc(=O)c3cc(OC)c(OC)cc23)cc1 | inactive
COc1ccc(CNC(=O)C2=C(C)C(=O)OC23CCN(C(C)=O)CC3)cc1 | inconclusive: 20.6 µM [activator, partial curve, poor fit]
c1ccc(N=Nc2ccc3cccccc2-3)cc1 | inconclusive: 16.4 µM [falling, single point]
CSc1sc(C(=O)NNC(C)=O)c2c1C1(CCC2)SCCS1 | inconclusive: 4.61 µM [activator, full curve]
C/C(=N\NC(=O)c1ccc(Cl)c(Cl)c1)c1ccccn1 | inconclusive: 0.164 µM [falling, full curve, poor fit]
N#Cc1cc2[nH]c3ccccc3c2[n+](-c2ccc([N+](=O)[O-])cc2)c1N | inconclusive: 7.31 µM [falling, partial curve, poor fit]
Cc1ccc2nc3c(cc(C#N)c(=O)n3-c3nccs3)c(=O)n2c1 | inconclusive: 14.6 µM [activator, partial curve]
COc1ccc(CNC(=O)c2nc(S(=O)(=O)Cc3ccccc3)ncc2Cl)cc1 | inconclusive: 16.4 µM [falling, single point]
O=C(OCc1ccc([N+](=O)[O-])cc1Cl)c1cnccn1 | inactive
CN(c1ccccc1)S(=O)(=O)c1cccc(C(=O)NC2CCCC2)c1 | inactive
COc1cc(C(=O)N2CCCC(c3nc(-c4cccs4)no3)C2)cc(OC)c1OC (stereo unspecified) | inconclusive: 6.51 µM [falling, single point]
O=C(Nc1ccc(F)cc1F)c1cccc(C(=O)Nc2ccc(F)cc2F)n1 | inconclusive: 20.6 µM [falling, single point]
O=C(Nc1cccc(S(=O)(=O)NCc2ccco2)c1)c1cc(-c2ccccc2)nc2ccccc12 | inconclusive: 18.4 µM [falling, partial curve, poor fit]
COc1ccc(CCNC(=O)c2cccc([N+](=O)[O-])c2)cc1OC | inactive
COc1ccc([C@H]2/C=C\CN(Cc3ccc(N(C)C)cc3)[C@@H](C)C(=O)N2Cc2ccc(F)cc2)cc1 | inactive
Cc1ccsc1C1Nc2ccc3ncccc3c2C2=C1C(=O)CC(C)(C)C2 (stereo unspecified) | inactive
CCOC(=O)c1c(NC(=O)c2cccs2)sc(C)c1C | inconclusive: 1.84 µM [activator, partial curve, poor fit]
O=C(NCCc1ccc(O)c(O)c1)C1COc2ccccc2O1 (stereo unspecified) | inconclusive: 16.4 µM [falling, partial curve, poor fit]
O=C(O)c1ccc2c(ccc3nn(-c4ccc(/C=C/c5ccc(-n6nc7ccc8cc(C(=O)O)ccc8c7n6)cc5[S+](=O)([O-])[O-])c([S+](=O)([O-])[O-])c4)nc32)c1 | inconclusive: 20.6 µM [activator, single point]
